Source: publication PMC7719709
No constants are given. Whether binding was seen depends on the method and setting. Binding seen in cells or lysates may run through a third protein. Here binding means that the protein was enriched with, or labelled near, the bait; the list need not be complete. Sequences can lack the tags named with a protein.

By UniProt entry, the sequences of proteins in these tests, tags left out.
UniProt P09874: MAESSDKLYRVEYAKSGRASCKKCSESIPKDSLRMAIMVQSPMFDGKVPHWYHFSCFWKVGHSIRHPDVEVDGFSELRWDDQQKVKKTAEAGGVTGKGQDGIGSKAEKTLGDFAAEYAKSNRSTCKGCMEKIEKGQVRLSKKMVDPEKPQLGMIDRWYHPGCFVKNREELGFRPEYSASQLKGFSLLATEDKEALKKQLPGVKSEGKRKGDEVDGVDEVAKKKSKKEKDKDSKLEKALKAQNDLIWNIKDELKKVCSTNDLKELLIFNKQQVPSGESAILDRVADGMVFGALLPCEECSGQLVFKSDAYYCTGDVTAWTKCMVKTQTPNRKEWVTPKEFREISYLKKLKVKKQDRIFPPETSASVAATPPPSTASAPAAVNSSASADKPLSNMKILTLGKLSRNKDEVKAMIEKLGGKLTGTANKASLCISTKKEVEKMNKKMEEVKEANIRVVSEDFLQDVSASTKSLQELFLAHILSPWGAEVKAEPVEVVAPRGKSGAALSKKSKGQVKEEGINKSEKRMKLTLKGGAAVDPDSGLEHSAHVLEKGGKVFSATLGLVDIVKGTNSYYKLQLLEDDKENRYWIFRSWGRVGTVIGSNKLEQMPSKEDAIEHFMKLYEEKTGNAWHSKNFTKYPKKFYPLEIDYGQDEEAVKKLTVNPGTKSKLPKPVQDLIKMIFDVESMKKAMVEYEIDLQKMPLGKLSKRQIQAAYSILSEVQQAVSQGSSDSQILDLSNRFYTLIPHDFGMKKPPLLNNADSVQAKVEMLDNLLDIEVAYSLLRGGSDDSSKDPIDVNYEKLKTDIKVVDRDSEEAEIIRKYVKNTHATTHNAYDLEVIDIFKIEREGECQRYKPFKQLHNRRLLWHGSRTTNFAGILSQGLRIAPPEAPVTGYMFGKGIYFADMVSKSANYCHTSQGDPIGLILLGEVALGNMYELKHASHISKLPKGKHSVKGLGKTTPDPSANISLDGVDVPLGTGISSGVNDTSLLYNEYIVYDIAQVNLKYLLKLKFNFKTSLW

Target: T1, FLAG-tagged HLTF (human) (UniProt Q14527)
T1 sequence: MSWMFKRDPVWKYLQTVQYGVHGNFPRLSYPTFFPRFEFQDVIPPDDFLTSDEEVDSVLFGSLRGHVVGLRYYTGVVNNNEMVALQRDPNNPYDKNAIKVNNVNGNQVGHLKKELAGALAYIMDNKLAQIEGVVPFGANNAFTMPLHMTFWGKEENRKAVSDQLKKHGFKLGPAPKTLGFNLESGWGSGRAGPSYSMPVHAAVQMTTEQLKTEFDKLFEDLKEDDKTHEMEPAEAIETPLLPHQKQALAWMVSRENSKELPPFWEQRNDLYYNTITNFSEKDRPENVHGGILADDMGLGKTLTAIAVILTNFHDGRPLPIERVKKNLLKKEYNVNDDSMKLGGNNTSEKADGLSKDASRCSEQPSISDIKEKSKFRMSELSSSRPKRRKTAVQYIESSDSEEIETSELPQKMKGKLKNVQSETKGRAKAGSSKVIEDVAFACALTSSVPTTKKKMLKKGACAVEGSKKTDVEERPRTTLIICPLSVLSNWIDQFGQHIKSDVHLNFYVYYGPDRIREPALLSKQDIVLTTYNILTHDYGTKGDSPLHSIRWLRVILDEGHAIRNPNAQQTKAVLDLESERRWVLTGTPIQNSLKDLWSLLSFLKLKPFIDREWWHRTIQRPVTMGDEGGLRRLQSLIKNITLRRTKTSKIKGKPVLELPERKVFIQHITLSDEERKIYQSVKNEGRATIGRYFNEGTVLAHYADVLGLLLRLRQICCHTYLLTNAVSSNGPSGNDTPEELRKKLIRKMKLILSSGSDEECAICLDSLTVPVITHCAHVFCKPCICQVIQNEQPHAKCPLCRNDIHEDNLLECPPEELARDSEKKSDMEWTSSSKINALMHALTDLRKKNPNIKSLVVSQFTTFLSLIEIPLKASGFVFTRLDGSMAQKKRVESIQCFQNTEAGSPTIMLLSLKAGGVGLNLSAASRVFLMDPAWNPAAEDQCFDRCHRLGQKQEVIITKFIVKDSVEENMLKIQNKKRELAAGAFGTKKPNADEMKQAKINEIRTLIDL
Assay: affinity purification with mass spectrometry; HLTF complex purified from FLAG–HLTF-expressing HEK293 cells; associated proteins subjected to mass spectrometry

- binding: binds
Substance: PARP1 (endogenous) (from UniProt P09874 1-1014)
